In the assay the target is pGBKT7-FpSae2 (Fusarium proliferatum). Nature of the assay: two-hybrid; FpSae2 in pGBKT7 (GAL4 DNA-binding domain), FpFumB in pGADT7 (GAL4 activation domain), co-transformed into S. cerevisiae Y2H Gold; growth on QDO (SD/-Trp/-Leu/-His/-Ade).

These are yes or no findings as the source states them, for the method shown. A result given as binding can be weak or reduced; the word gives no strength.

Regarding “pGADT7-FpFumB (from UniProt A0A1L7VE85) (enzyme)”, the binding entry is reported as “binds”.

The record behind these values is article PMC12196060.
